Reference: PubChem BioAssay AID743454 (Peter MacCallum Cancer Centre, 2014)
Purpose: 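Search for knock-downs that restore vorinostat killing in resistant colon cancer cells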 (primary screen). Cell system: human HCT116-VR colon cancer cells, selected for vorinostat resistance. Reagents: siRNA pool against human genes, 40 nM siRNA pool. Time to read-out: vorinostat for 24 h, read-out about 72 h after transfection. Conditions: vorinostat at 2.5 µM final. Measurement: 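Cell viability by CellTiter-Fluor and caspase 3/7 activity by luminescence, each scaled to mock wells per plate, duplicates averaged, then robust z-scored over all plates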. Scale: viability robust z-score: higher = more viable cells than screen typical; caspase robust z-score: higher = more caspase 3/7 activity than screen typical. Active means: 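Hits are knock-downs in viability class RV1/RV2 or caspase class CA1/CA2, excluding ones that killed cells in the no-drug cell-count arm; hits then retested with single siRNAs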.
In all, the deposit lists about 18,000 reagents; this is a random part of them. 450 of all reagents (2.5%) were called active. 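Single biological run; no consistent viability z cut-off exists, so the class columns, not z-scores, define the calls.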 Entries without a mark were called inactive.

no.	gene	viability hit class	caspase hit class	viability robust z-score	caspase robust z-score
1	SLC25A24	no change	no change	-1.31	-0.66
2	REXO1L1P (REXO1 like 1, pseudogene)	no change	no change	0.86	-0.8
3	BUB1B (BUB1 mitotic checkpoint serine/threonine kinase B)	no change	no change	-0.7	2.15
4	SORL1 (sortilin related receptor 1)	no change	no change	-0.25	-0.4
5	ART5 (ADP-ribosyltransferase 5)	no change	no change	-1.64	0.29
6	MCMBP (minichromosome maintenance complex binding protein)	no change	no change	0.27	-0.71
7	SLC12A3	no change	no change	0.84	-0.64
8	PTPRM (protein tyrosine phosphatase receptor type M)	no change	no change	-1.02	-0.2
9	DDX46 (DEAD-box helicase 46)	no change	no change	-2.36	1.98
10	SSR3 (signal sequence receptor subunit 3)	no change	no change	-1.3	1.92
11	CDK12 (cyclin dependent kinase 12)	no change	no change	-0.66	0.1
12	COL4A2 (collagen type IV alpha 2 chain)	no change	no change	1.19	-0.52
13	DMRTC1B (DMRT like family C1B)	no change	no change	0.12	1.73
14	TRAPPC2L (trafficking protein particle complex subunit 2L)	no change	no change	0.3	-0.24
15	ANP32A (acidic nuclear phosphoprotein 32 family member A)	no change	no change	-1	2.58
16	VAMP2 (vesicle associated membrane protein 2)	no change	no change	0.04	0
17	PRODH2 (proline dehydrogenase 2)	no change	no change	0.82	-0.74
18	GPRC5D (G protein-coupled receptor class C group 5 member D)	no change	no change	-0.52	-0.56
19	MAP3K2 (mitogen-activated protein kinase kinase kinase 2)	no change	no change	2.35	-0.5
20	XRCC1 (X-ray repair cross complementing 1)	no change	no change	0.4	1.66
21	ACSF2 (acyl-CoA synthetase family member 2)	no change	no change	-0.54	-1
22	CENPL (centromere protein L)	no change	no change	0.78	0.46
23	TMEM198 (transmembrane protein 198)	no change	no change	0.38	0.78
24	SYTL1 (synaptotagmin like 1)	no change	no change	0.84	-0.02
25	NRXN2 (neurexin 2)	no change	no change	-0.23	-1.43
26	NOA1 (nitric oxide associated 1)	no change	no change	-0.05	0.1
27	IFI44L (interferon induced protein 44 like)	no change	no change	-0.04	1.11
28	MIB2 (MIB E3 ubiquitin protein ligase 2)	no change	no change	0.68	1.9
29	CALHM6 (calcium homeostasis modulator family member 6)	no change	no change	-0.63	-1
30	NAT10 (N-acetyltransferase 10)	no change	no change	-0.16	-0.9
31	SNAP23 (synaptosome associated protein 23)	no change	no change	-0.68	1.36
32	ABCC8 (ATP binding cassette subfamily C member 8)	no change	no change	-1.62	0.22
33	OR2T3 (olfactory receptor family 2 subfamily T member 3)	no change	no change	-0.26	-0.23
34	CAPG (capping actin protein, gelsolin like)	no change	no change	-0.5	0.64
35	COXFA4 (cytochrome c oxidase associated subunit FA4)	no change	no change	0.64	-0.97
36	IFT70A (intraflagellar transport 70A)	no change	no change	-0.3	0.34
37	UGT1A8 (UDP glucuronosyltransferase family 1 member A8)	no change	no change	-1.6	3.63
38	ARHGEF3 (Rho guanine nucleotide exchange factor 3)	no change	no change	-0.22	-0.68
39	PSMD8 (proteasome 26S subunit, non-ATPase 8)	no change	no change	-4.75	0.32

Ordered by “viability robust z-score” (descending): some entries from above.
gene	viability hit class	caspase hit class	viability robust z-score	caspase robust z-score
COL4A2 (collagen type IV alpha 2 chain)	no change	no change	1.19	-0.52
TRAPPC2L (trafficking protein particle complex subunit 2L)	no change	no change	0.3	-0.24
DMRTC1B (DMRT like family C1B)	no change	no change	0.12	1.73
CDK12 (cyclin dependent kinase 12)	no change	no change	-0.66	0.1
ANP32A (acidic nuclear phosphoprotein 32 family member A)	no change	no change	-1	2.58
